Assay results taken from patent publication EP2161029A1, “Composition comprising peptides” (Unilever N.V., priority 2008, dated 2010).
Part of at least one peptide drawing is inferred or uncertain, most often the ends. Peptide text beside a SMILES is read from it.

Test system: ACE
Assay: ACE inhibition, HPLC-UV at-line assay with substrate HHL
Type: biochemical
[1] = 20 µM dipeptide, substrate Hippuryl-His-Leu, at-line HPLC-UV assay, mean
[2] = 200 µM dipeptide, substrate Hippuryl-His-Leu, at-line HPLC-UV assay, mean

| SMILES | residual ACE activity (in % of control) [1] | residual ACE activity (in % of control) [2] | residual ACE activity (in % of control) 20 µM dipeptide mean (20 µM dipeptide, substrate Hippuryl-His-Leu, at-line HPLC-UV assay, mean, n=2) | residual ACE activity (in % of control) 200 µM dipeptide mean (200 µM dipeptide, substrate Hippuryl-His-Leu, at-line HPLC-UV assay, mean, n=2) | IC50 (dipeptide 2.5 - 500 µM, substrate Hip-His-Leu (1 mM), n=2, read-out: IC50 means ± SE) [µM] |
| --- | --- | --- | --- | --- | --- |
| N[C@@H](Cc1ccccc1)C(=O)N[C@@H](CCC(=O)O)C(=O)O [FE] (H-Phe-Glu-OH) | 99.4 % of control | 100.00 % of control | – | – | – |
| NCC(=O)N[C@@H](CC(=O)O)C(=O)O [GD] (H-Gly-Asp-OH) | 59.4 % of control | 59.05 % of control | – | – | – |
| NCCCC[C@H](N)C(=O)N[C@@H](Cc1ccccc1)C(=O)O [KF] | 80.3 % of control | 47.75 % of control | – | – | – |
| CC(C)[C@H](N)C(=O)N[C@@H](Cc1c[nH]c2ccccc12)C(=O)O [VW, Val-Trp] (H-Val-Trp-OH) | – | – | 39.3 % of control | 19.45 % of control | 24 |
